These are yes or no findings as the source states them, for the method shown. Some entries that bind do so weakly or less than the wild type.

Protein sequences, listed by entry. Tags and fused reporters are not part of them. Residues count along the entry.
UniProt P35225, residues 35-146: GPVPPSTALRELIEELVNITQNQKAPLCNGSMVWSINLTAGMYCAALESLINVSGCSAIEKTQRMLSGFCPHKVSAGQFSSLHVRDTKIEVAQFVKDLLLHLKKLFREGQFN

Among the data in patent US20130236458A1 (AbbVie / Abbott, published 2013) are binding values, retold here.

Test [1] concerns the target Recombinant Human IL-13 (human, UniProt P35225 35-146, limits assumed). Briefly: SPR (Biacore). The protocol: (§1) The BIACORE assay (Biacore, Inc, Piscataway, N.J.) determined the affinity of antibodies or DVD-Ig with kinetic measurements of on-rate and off-rate constants. Binding of antibodies or DVD-Ig proteins to a target antigen (for example, a purified recombinant target antigen) was determined by surface plasmon resonance-based measurements with a Biacore®1000 or 3000 instrument (Biacore® AB, Uppsala, Sweden) using running HBS-EP (10 mM HEPES [pH 7.4], 150 mM NaCl, 3 mM EDTA, and 0.005% surfactant P20) at 25° C. All chemicals were obtained from Biacore® AB (Uppsala, Sweden) or otherwise from a different source as described in the text. For example, approximately 5000 RU of goat anti-mouse IgG, (Fcγ), fragment specific polyclonal antibody (Pierce Biotechnology Inc, Rockford, Ill.) diluted in 10 mM sodium acetate (pH 4.5) was directly immobilized across a CM5 research grade biosensor chip using a standard amine coupling kit according to manufacturer's instructions and procedures at 25 μg/ml. Unreacted moieties on the biosensor surface were blocked with ethanolamine. Modified carboxymethyl dextran surface in flowcell 2 and 4 was used as a reaction surface. Unmodified carboxymethyl dextran without goat anti-mouse IgG in flow cell 1 and 3 was used as the reference surface. For kinetic analysis, rate equations derived from the 1:1 Langmuir binding model were fitted simultaneously to association and dissociation phases of all eight injections (using global fit analysis) with the use of Biaevaluation 4.0.1 software. Purified antibodies or DVD-Ig proteins were diluted in HEPES-buffered saline for capture across goat anti-mouse IgG specific reaction surfaces. Antibodies or DVD-Ig proteins to be captured as a ligand (25 μg/ml) were injected over reaction matrices at a flow rate of 5 μl/minute. The association and dissociation rate constants, kₒₙ (M⁻¹s⁻¹) and koff (s⁻¹) were determined under a continuous flow rate of 25 μl/minute. Rate constants were derived by making kinetic binding measurements at different antigen concentrations ranging from 10-200 nM. The equilibrium dissociation constant (M) of the reaction between antibodies or DVD-Ig proteins and the target antigen was then calculated from the kinetic rate constants by the following formula: KD=koff/kₒₙ. Binding was recorded as a function of time and kinetic rate constants were calculated.
(In SPR one partner is held on a chip, and binding of the other changes the refractive index at the surface.)

For test [2], the target named is T1, Recombinant Human IL-17 (human, UniProt Q16552 20-155, limits assumed).
T1 sequence (looked up): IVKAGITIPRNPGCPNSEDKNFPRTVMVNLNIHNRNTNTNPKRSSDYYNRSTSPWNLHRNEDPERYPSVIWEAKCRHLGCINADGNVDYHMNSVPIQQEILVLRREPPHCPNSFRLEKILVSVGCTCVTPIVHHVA
Briefly: SPR (Biacore). The protocol: as §1

B1: DVD2171 (bispecific antibody)
VH: EVQLVQSGAEVKKPGSSVKVSCKASGYTFTDYEIHWVRQAPGQGLEWMGVNDPESGGTFYNQKFDGRVTLTADESTSTAYMELSSLRSEDTAVYYCTRYSKWDSFDGMDYWGQGTTVTVSSASTKGPSVFPLAPEVQLVQSGAEVKKPGASVKVSCKASGYTFTTYGVSWVRQAPGQGLEWMGEIYPGNYNTYYNEKFRGRVTMTTDTSTSTAYMELRSLRSDDTAVYYCARWRTSYFSDYGYFDYWGQGTTVTVSS
VL: DIQMTQSPSSLSASVGDRVTITCRASSGIISYIDWFQQKPGKAPKRLIYATFDLASGVPSRFSGSGSGTDYTLTISSLQPEDFATYYCRQVGSYPETFGQGTKLEIKRTVAAPDVVMTQSPLSLPVTLGQPASISCRSSQSLVHSHGNTYLHWYQQRPGQSPRLLIYTVSNRFSGVPDRFSGSGSGTDFTLKISRVEAEDVGVYYCSQSTHVPYTFGGGTKVEIKR
notes: DVD-Ig; also called DVD2171H; DVD2171L
As for B1, the binding result in test [1] and in test [2] was “binds” in each case.

B2: DVD2185 (bispecific antibody)
VH: EVQLVQSGAEVKKPGSSVKVSCKASGYTFTDYEIHWVRQAPGQGLEWMGVNDPESGGTFYNQKFDGRVTLTADESTSTAYMELSSLRSEDTAVYYCTRYSKWDSFDGMDYWGQGTTVTVSSASTKGPEVQLVQSGAEVKKPGASVKVSCKASGYTFTSYWMHWVRQAPGQGLEWIGNINPKGGSNIYNEKFQGRVTMTRDTSISTAYMELSRLRSDDTAVYYCARLDYFGDSFDLWGQGTTVTVSS
VL: DIQMTQSPSSLSASVGDRVTITCRASSGIISYIDWFQQKPGKAPKRLIYATFDLASGVPSRFSGSGSGTDYTLTISSLQPEDFATYYCRQVGSYPETFGQGTKLEIKRTVAAPDIQMTQSPSSLSASVGDRVTITCRASQGIRNYLNWYQQKPGKAPKLLIYYASNLEVGVPSRFSGSGSGTDYTLTISSLQPEDFATYYCQQDNRFPYTFGGGTKVEIKR
notes: DVD-Ig; also called DVD2185H; DVD2185L
On to B2, for which the binding result in test [1] and in test [2] was “binds” throughout.

B3: DVD2189 (bispecific antibody)
VH: EVQLVQSGAEVKKPGSSVKVSCKASGYTFTDYEIHWVRQAPGQGLEWMGVNDPESGGTFYNQKFDGRVTLTADESTSTAYMELSSLRSEDTAVYYCTRYSKWDSFDGMDYWGQGTTVTVSSASTKGPSVFPLAPEVQLVQSGAEVKKPGASVKVSCKASGYTFTSYWMHWVRQAPGQGLEWIGNINPKGGSNIYNEKFQGRVTMTRDTSISTAYMELSRLRSDDTAVYYCARLDYFGDSFDLWGQGTTVTVSS
VL: DIQMTQSPSSLSASVGDRVTITCRASSGIISYIDWFQQKPGKAPKRLIYATFDLASGVPSRFSGSGSGTDYTLTISSLQPEDFATYYCRQVGSYPETFGQGTKLEIKRTVAAPDIQMTQSPSSLSASVGDRVTITCRASQGIRNYLNWYQQKPGKAPKLLIYYASNLEVGVPSRFSGSGSGTDYTLTISSLQPEDFATYYCQQDNRFPYTFGGGTKVEIKR
notes: DVD-Ig; also called DVD2189H; DVD2189L
B3: the binding entry in test [1] and in test [2] was “binds” throughout.

B4: DVD2187 (bispecific antibody)
VH: EVQLVQSGAEVKKPGSSVKVSCKASGYTFTDYEIHWVRQAPGQGLEWMGVNDPESGGTFYNQKFDGRVTLTADESTSTAYMELSSLRSEDTAVYYCTRYSKWDSFDGMDYWGQGTTVTVSSASTKGPEVQLVQSGAEVKKPGASVKVSCKASGYTFTSYWMHWVRQAPGQGLEWIGNINPKGGSNIYNEKFQGRVTMTRDTSISTAYMELSRLRSDDTAVYYCARLDYFGDSFDLWGQGTTVTVSS
VL: DIQMTQSPSSLSASVGDRVTITCRASSGIISYIDWFQQKPGKAPKRLIYATFDLASGVPSRFSGSGSGTDYTLTISSLQPEDFATYYCRQVGSYPETFGQGTKLEIKRTVAAPSVFIFPPDIQMTQSPSSLSASVGDRVTITCRASQGIRNYLNWYQQKPGKAPKLLIYYASNLEVGVPSRFSGSGSGTDYTLTISSLQPEDFATYYCQQDNRFPYTFGGGTKVEIKR
notes: DVD-Ig; also called DVD2187H; DVD2187L
Regarding B4, the binding result in test [1] and in test [2] was “binds” throughout.

B5: DVD2196 (bispecific antibody)
VH: EVQLVQSGAEVKKPGASVKVSCKASGYTFTSYWMHWVRQAPGQGLEWIGNINPKGGSNIYNEKFQGRVTMTRDTSISTAYMELSRLRSDDTAVYYCARLDYFGDSFDLWGQGTTVTVSSASTKGPEVQLVQSGAEVKKPGESVKISCKASGGSFRSYGISWVRQAPGQGLEWMGGITHFFGITDYAQKFQGRVTITADESTTTAYMELSGLTSDDTAVYYCAREPNDFWNGYYDTHDFDSWGQGTTVTVSS
VL: DIQMTQSPSSLSASVGDRVTITCRASQGIRNYLNWYQQKPGKAPKLLIYYASNLEVGVPSRFSGSGSGTDYTLTISSLQPEDFATYYCQQDNRFPYTFGGGTKVEIKRTVAAPEIVLTQSPDFQSVTPKEKVTITCRASQNIGSELHWYQQKPDQSPKLLIKYASHSISGVPSRFSGSGSGTDFTLTINGLEAEDAATYYCHQSDTLPHTFGQGTKVDIKR
notes: DVD-Ig; also called DVD2196H; DVD2196L
With B5, the binding entry in test [1] and in test [2] was “binds” in each case.

B6: DVD2179 (bispecific antibody)
VH: EVQLVQSGAEVKKPGESVKISCKASGGSFRSYGISWVRQAPGQGLEWMGGITHFFGITDYAQKFQGRVTITADESTTTAYMELSGLTSDDTAVYYCAREPNDFWNGYYDTHDFDSWGQGTTVTVSSASTKGPEVQLVQSGAEVKKPGASVKVSCKASGYTFTTYGVSWVRQAPGQGLEWMGEIYPGNYNTYYNEKFRGRVTMTTDTSTSTAYMELRSLRSDDTAVYYCARWRTSYFSDYGYFDYWGQGTTVTVSS
VL: EIVLTQSPDFQSVTPKEKVTITCRASQNIGSELHWYQQKPDQSPKLLIKYASHSISGVPSRFSGSGSGTDFTLTINGLEAEDAATYYCHQSDTLPHTFGQGTKVDIKRTVAAPDVVMTQSPLSLPVTLGQPASISCRSSQSLVHSHGNTYLHWYQQRPGQSPRLLIYTVSNRFSGVPDRFSGSGSGTDFTLKISRVEAEDVGVYYCSQSTHVPYTFGGGTKVEIKR
notes: DVD-Ig; also called DVD2179H; DVD2179L
Take B6: the binding entry in test [1] and in test [2] was “binds” in each case.

B7: DVD2181 (bispecific antibody)
VH: EVQLVQSGAEVKKPGESVKISCKASGGSFRSYGISWVRQAPGQGLEWMGGITHFFGITDYAQKFQGRVTITADESTTTAYMELSGLTSDDTAVYYCAREPNDFWNGYYDTHDFDSWGQGTTVTVSSASTKGPEVQLVQSGAEVKKPGASVKVSCKASGYTFTTYGVSWVRQAPGQGLEWMGEIYPGNYNTYYNEKFRGRVTMTTDTSTSTAYMELRSLRSDDTAVYYCARWRTSYFSDYGYFDYWGQGTTVTVSS
VL: EIVLTQSPDFQSVTPKEKVTITCRASQNIGSELHWYQQKPDQSPKLLIKYASHSISGVPSRFSGSGSGTDFTLTINGLEAEDAATYYCHQSDTLPHTFGQGTKVDIKRTVAAPSVFIFPPDVVMTQSPLSLPVTLGQPASISCRSSQSLVHSHGNTYLHWYQQRPGQSPRLLIYTVSNRFSGVPDRFSGSGSGTDFTLKISRVEAEDVGVYYCSQSTHVPYTFGGGTKVEIKR
notes: DVD-Ig; also called DVD2181H; DVD2181L
On to B7, for which the binding result in test [1] and in test [2] was “binds” in each case.

B8: DVD2183 (bispecific antibody)
VH: EVQLVQSGAEVKKPGESVKISCKASGGSFRSYGISWVRQAPGQGLEWMGGITHFFGITDYAQKFQGRVTITADESTTTAYMELSGLTSDDTAVYYCAREPNDFWNGYYDTHDFDSWGQGTTVTVSSASTKGPSVFPLAPEVQLVQSGAEVKKPGASVKVSCKASGYTFTTYGVSWVRQAPGQGLEWMGEIYPGNYNTYYNEKFRGRVTMTTDTSTSTAYMELRSLRSDDTAVYYCARWRTSYFSDYGYFDYWGQGTTVTVSS
VL: EIVLTQSPDFQSVTPKEKVTITCRASQNIGSELHWYQQKPDQSPKLLIKYASHSISGVPSRFSGSGSGTDFTLTINGLEAEDAATYYCHQSDTLPHTFGQGTKVDIKRTVAAPDVVMTQSPLSLPVTLGQPASISCRSSQSLVHSHGNTYLHWYQQRPGQSPRLLIYTVSNRFSGVPDRFSGSGSGTDFTLKISRVEAEDVGVYYCSQSTHVPYTFGGGTKVEIKR
notes: DVD-Ig; also called DVD2183H; DVD2183L
Turning to B8, the binding result in test [1] and in test [2] was “binds” in each case.

B9: DVD2197 (bispecific antibody)
VH: EVQLVQSGAEVKKPGESVKISCKASGGSFRSYGISWVRQAPGQGLEWMGGITHFFGITDYAQKFQGRVTITADESTTTAYMELSGLTSDDTAVYYCAREPNDFWNGYYDTHDFDSWGQGTTVTVSSASTKGPEVQLVQSGAEVKKPGASVKVSCKASGYTFTSYWMHWVRQAPGQGLEWIGNINPKGGSNIYNEKFQGRVTMTRDTSISTAYMELSRLRSDDTAVYYCARLDYFGDSFDLWGQGTTVTVSS
VL: EIVLTQSPDFQSVTPKEKVTITCRASQNIGSELHWYQQKPDQSPKLLIKYASHSISGVPSRFSGSGSGTDFTLTINGLEAEDAATYYCHQSDTLPHTFGQGTKVDIKRTVAAPDIQMTQSPSSLSASVGDRVTITCRASQGIRNYLNWYQQKPGKAPKLLIYYASNLEVGVPSRFSGSGSGTDYTLTISSLQPEDFATYYCQQDNRFPYTFGGGTKVEIKR
notes: DVD-Ig; also called DVD2197H; DVD2197L
On to B9, for which the binding result in test [1] and in test [2] was “binds” throughout.
